Assay results as given in PMC4826180.
No constants are given. Whether binding was seen depends on the method and setting. Binding seen in cells or lysates may run through a third protein. Some results given as binding are weak or reduced against the parent protein; the word gives no strength.

Sequences of proteins named here, by UniProt entry; tags and fusion partners are left off. Residues count along the entry.
UniProt P02751, residues 32-2477: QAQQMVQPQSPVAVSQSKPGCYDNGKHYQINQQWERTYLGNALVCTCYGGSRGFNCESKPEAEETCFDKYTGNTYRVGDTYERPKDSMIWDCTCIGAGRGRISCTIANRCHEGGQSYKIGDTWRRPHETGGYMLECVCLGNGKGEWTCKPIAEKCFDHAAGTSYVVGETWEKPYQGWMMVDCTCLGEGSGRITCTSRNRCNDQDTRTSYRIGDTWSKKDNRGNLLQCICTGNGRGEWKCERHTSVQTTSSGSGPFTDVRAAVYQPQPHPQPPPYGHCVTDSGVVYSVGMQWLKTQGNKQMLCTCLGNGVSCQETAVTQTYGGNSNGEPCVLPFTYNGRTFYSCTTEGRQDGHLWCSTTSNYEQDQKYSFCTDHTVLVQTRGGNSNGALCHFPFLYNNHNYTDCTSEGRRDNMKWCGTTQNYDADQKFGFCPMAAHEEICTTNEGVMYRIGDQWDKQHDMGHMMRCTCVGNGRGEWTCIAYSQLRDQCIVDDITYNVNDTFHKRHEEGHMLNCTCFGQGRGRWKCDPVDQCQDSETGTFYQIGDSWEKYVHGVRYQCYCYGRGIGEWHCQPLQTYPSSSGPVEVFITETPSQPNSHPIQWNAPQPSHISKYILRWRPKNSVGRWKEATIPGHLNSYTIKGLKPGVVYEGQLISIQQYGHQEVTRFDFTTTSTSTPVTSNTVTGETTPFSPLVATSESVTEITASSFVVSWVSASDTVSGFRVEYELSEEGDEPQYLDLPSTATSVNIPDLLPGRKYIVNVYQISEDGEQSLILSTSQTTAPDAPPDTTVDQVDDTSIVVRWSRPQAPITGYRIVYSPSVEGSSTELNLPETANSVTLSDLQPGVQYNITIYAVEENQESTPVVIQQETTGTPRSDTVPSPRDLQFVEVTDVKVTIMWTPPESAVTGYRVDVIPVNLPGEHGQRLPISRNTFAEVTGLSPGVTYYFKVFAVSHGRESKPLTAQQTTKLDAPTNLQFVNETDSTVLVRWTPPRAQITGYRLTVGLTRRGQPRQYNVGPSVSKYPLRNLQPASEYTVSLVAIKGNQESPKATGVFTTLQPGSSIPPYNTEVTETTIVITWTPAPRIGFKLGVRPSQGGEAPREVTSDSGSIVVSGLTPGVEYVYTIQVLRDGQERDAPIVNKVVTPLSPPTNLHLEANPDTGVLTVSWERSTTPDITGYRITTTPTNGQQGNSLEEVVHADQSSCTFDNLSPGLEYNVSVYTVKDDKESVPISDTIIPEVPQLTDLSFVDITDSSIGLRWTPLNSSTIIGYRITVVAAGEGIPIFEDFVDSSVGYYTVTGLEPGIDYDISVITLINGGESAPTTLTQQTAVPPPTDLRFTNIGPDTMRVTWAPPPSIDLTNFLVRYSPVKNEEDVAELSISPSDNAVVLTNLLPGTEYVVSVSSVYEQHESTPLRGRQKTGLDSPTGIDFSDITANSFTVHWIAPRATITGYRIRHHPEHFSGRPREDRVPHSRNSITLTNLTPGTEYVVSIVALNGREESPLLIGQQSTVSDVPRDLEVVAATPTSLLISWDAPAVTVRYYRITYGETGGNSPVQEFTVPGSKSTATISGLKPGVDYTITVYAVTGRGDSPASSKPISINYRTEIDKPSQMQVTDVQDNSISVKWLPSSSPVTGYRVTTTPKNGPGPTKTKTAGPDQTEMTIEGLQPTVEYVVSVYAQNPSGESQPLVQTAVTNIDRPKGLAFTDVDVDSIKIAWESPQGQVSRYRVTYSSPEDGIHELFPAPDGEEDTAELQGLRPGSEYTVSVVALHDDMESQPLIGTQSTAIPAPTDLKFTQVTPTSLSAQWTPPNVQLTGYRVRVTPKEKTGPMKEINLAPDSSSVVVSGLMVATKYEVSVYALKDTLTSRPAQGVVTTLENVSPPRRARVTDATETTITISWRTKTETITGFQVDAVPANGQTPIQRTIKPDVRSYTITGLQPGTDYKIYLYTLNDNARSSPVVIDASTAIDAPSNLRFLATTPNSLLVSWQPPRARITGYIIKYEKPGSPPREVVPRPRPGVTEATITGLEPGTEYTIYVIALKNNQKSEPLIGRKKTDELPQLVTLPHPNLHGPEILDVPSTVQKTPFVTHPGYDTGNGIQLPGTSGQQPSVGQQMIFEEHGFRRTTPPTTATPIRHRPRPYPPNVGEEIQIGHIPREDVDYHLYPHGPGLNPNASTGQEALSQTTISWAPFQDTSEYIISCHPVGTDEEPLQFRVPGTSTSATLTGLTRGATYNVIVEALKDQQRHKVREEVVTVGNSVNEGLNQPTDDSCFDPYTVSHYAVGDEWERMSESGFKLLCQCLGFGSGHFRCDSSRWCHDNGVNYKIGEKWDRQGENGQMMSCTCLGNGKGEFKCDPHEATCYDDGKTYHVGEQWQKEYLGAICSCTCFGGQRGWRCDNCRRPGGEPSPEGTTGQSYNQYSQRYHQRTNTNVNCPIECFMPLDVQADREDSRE

Molecular target: T1, Regenerating islet-derived 3 alpha (REG3A) (human (endogenous in CRC cells)) (UniProt Q06141)
T1 sequence: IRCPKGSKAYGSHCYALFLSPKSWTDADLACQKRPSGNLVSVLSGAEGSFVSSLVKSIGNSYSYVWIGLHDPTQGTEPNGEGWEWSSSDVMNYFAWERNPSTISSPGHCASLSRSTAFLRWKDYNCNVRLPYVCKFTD
Assay: co-IP; CRC cell lysates reacted with anti-REG3A (Ab134309, Abcam) or control IgG for 1 h at 4°C, then protein A-agarose for 3 h at 4°C; washed three times in lysis buffer; western blot

For “Fibronectin1 (FN1) (from UniProt P02751 32-2477)”, the binding was “binds”.
